Results are given in words; binding and its absence hold for the method and conditions named. Some entries that bind do so weakly or less than the wild type. For some of these results: Sequences can lack the tags named with a protein.
How the values were obtained:
[1] = target: His-CtBP1/BARS^wt (C-terminal-binding protein 1/brefeldin A ADP-ribosylation substrate) (UniProt Q9Z2F5); assay: pull-down; histidine pull-down on Ni-NTA agarose: equimolar His-CtBP1/BARS and GST-CtBP1/BARS, 4 °C; pre-incubation with DMSO, Comp.11 (5, 15, 25 µM), 100 µM NAD+ or 100 µM acyl-CoA; 50 mM Tris-HCl pH 8.0, 150 mM NaCl, 20 mM imidazole, 0.2% Triton X-100; blot with anti-GST and anti-His; both purified
[2] = target: GST-E1A (adenovirus (serotype not given)) (UniProt P03255); assay: pull-down; both purified
GST–14–3-3γ = target: T1, GST–14–3-3γ (UniProt P61981); assay: pull-down; both purified
T1 sequence: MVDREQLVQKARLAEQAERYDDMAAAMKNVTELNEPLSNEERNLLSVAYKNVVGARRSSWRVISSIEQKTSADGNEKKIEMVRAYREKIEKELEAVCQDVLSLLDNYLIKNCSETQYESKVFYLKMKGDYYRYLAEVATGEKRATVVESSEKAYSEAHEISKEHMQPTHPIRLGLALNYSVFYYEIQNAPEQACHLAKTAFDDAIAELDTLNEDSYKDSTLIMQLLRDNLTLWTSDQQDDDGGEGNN

[3] = target: His-CtBP1/BARS^wt (C-terminal-binding protein 1/brefeldin A ADP-ribosylation substrate) (UniProt Q9Z2F5); assay: pull-down; histidine pull-down on Ni-NTA agarose: His-CtBP1/BARS (5 µg) pre-incubated with DMSO, Comp.11, 100 µM NAD+ or 100 µM acyl-CoA, then equimolar immunopurified LPAATδ-Flag, 2 h, 4 °C; His incubation buffer; blot with anti-Flag and anti-His; both purified

Molecule: GST-CtBP1/BARS (from UniProt Q9Z2F5 1-430)
- binding [1]: binds

Molecule: His-CtBP1/BARS^wt (C-terminal-binding protein 1/brefeldin A ADP-ribosylation substrate) (from UniProt Q9Z2F5 1-430)
- binding [2]: binds
- binding (GST–14–3-3γ): binds

B1: Flag-LPAATδ (lysophosphatidic acid acyltransferase type δ) (enzyme, UniProt Q9NRZ5 1-378)
chain: MDLAGLLKSQFLCHLVFCYVFIASGLIINTIQLFTLLLWPINKQLFRKINCRLSYCISSQLVMLLEWWSGTECTIFTDPRAYLKYGKENAIVVLNHKFEIDFLCGWSLSERFGLLGGSKVLAKKELAYVPIIGWMWYFTEMVFCSRKWEQDRKTVATSLQHLRDYPEKYFFLIHCEGTRFTEKKHEISMQVARAKGLPRLKHHLLPRTKGFAITVRSLRNVVSAVYDCTLNFRNNENPTLLGVLNGKKYHADLYVRRIPLEDIPEDDDECSAWLHKLYQEKDAFQEEYYRTGTFPETPMVPPRRPWTLVNWLFWASLVLYPFFQFLVSMIRSGSSLTLASFILVFFVASVGVRWMIGVTEIDKGSAYGNSDSKQKLND
- binding [3]: binds
